According to the supplement of paper PMC10338343:
± gives the standard deviation. This is a selection; strong and weak results do not stand in their true shares. Many of these values have a large error.

test system: MILI (PIWIL2) piRISC loaded with L1MC piRNA (26 nt); test: pre-steady-state target cleavage rate (min^-1); MIWI and MILI are mouse PIWI proteins and EfPiwi is from a freshwater sponge; tags in brackets are library labels; higher = faster piRNA-guided slicing of the target; conditions: guide: L1MC piRNA 5'p-UAACUAAAUACUAUGCAAGCUGUAGG; auxiliary factor: 500 nM mouse GTSF1
Method: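 Cleave-'n-Seq: a library of target RNAs (target site embedded in constant flanks, ACAGCATTCCGCGTTAGTGATATCCG... 5' flank; DNA-blocked outside the site) at 0.1 nM was incubated with 1 nM active mouse MILI or MIWI piRISC (synthetic 5'-monophosphorylated piRNA guide) with or without 500 nM mouse GTSF1 at 33 °C for 1 min to 16 h. Uncleaved targets were sequenced and normalised to non-target controls, and the pooled three trials were fitted to a burst-and-steady-state model to give the pre-steady-state cleavage rate (min^-1; k3 is constrained to at most 1e-4). Sequence is the target site only; target names encode pairing extent (gX:gY) and contiguous / 1-mismatch / 2-mismatch / bulge geometry. Fits with R² ≤ 0 are excluded.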

Sequence | pre-steady-state target cleavage rate
UCCUGGAUGAGCUAGCAUAGUAUUUAGAUA | 0.168 ± 0.028
UCCUGGAUGUCGUUGCAUAGUAUUUAGUCUA | 0.013 ± 0.0062
UCCUGCUACAGCUUGCAUAGUAUUAUCUUA | 0.16 ± 0.035
UCCUGGAUGAGCUUGCAUUGUAUUUAGUAA | 0.127 ± 0.021
UCCUGCUACAGCUUGCAAAGAAUUUAGUUA | 0.0168 ± 0.0052
UCCUCCUACAGCUUCGUUAGUAUUUAGUAA | 0.186 ± 0.026
UCCUGGAACAGCUAGCAUAGUAUUAAGUUA | 0.192 ± 0.015
UCCUGGAUGUCGAUGCAUAGUAUUUACAAA | 0.0066 ± 0.0042
UCCUGGAUGUCGAUGCAUAGAAUAUAGUUA | 0.000556 ± 0.013
UCCUGCUACAUCUUGCAUAGUAUUUAGUUA | 0.239 ± 0.02
UCCUGGUAGUGCUUGCAUAGUAUUUACAAA | 0.00115 ± 0.0093
UCCUGGAACACCUUGCAUAGUAUUAAGUUA | 0.189 ± 0.034
UCCUGGAUGUCGAAGCAUGGUAUUUAGUUA | 0.0111 ± 0.0048
UCCUGGAUGUCGUUGCAUAGUUUUAGUUA | 0.000802 ± 0.014
UCCUGGAUGAGCUUGCAUAGUAAAAAGAAA | 0.00225 ± 0.0063

same assay, conditions: guide: L1MC piRNA 5'p-UAACUAAAUACUAUGCAAGCUGUAGG; auxiliary factor: none (no GTSF1)

Sequence | pre-steady-state target cleavage rate
UCCUGGAUGAGCUAGCAUAGUAUUUAGAUA | 0.00234 ± 0.0029
UCCUGGAUCAGCUUGGUAAGUAUUUUCAAA | 0.000719 ± 0.0063
UCCUGGAUGUCGUUGCAUAGUAUUUAGUCUA | 0.00433 ± 0.0036
UCCUGGAUGAGCUUGCUAAGUAUUUACAAA | 0.00099 ± 0.0071
UCCUGCUACAGCUUGCAUAGUAUUAUCUUA | 0.00154 ± 0.0042
UCCUGGAUGAGCUUGCAUUGUAUUUAGUAA | 0.00311 ± 0.0025
UCCUGCUACAGCUUGCAAAGAAUUUAGUUA | 0.00324 ± 0.0017
UCCUGGAUCAGCUUGCAUGAGUAUUUAGUUA | 0.00134 ± 0.0051
UCCUGGAUGUCGAACGUAAAUAUUUAGUUA | 0.000109 ± 0.032
UCCUCCUACAGCUUCGUUAGUAUUUAGUAA | 0.00171 ± 0.0029
UCCUGGAUGUCCUUGCAUUCUAUUUAGUAA | 0.000967 ± 0.0069
UCCUGGAUGUCCUUGCAUAGUUAUUAGUAA | 0.00121 ± 0.0057
UCCUCCUACAGCUUGCAUGAGUAUUUAGUUA | 0.00158 ± 0.0036
UCCUGGAACAGCUAGCAUAGUAUUAAGUUA | 0.00356 ± 0.0025
UCCUGGAUGUCGAUGCAUAGUAUUUACAAA | 0.000537 ± 0.0078
UCCUGGAUGAGCUUGCAUAGUAUAAAGAAA | 0.000472 ± 0.016
UCCUGGAUGUCGAUGCAUAGAAUAUAGUUA | 0.000476 ± 0.011
UCCUGGAACAGCUUGCAUAGUAUUUUGAUA | 0.00128 ± 0.0038
UCCUGCUACAUCUUGCAUAGUAUUUAGUUA | 0.0095 ± 0.0022
UCCUGGUAGUGCUUGCAUAGUAUUUACAAA | 0.000735 ± 0.008
UCCUGGAACACCUUGCAUAGUAUUAAGUUA | 0.00181 ± 0.0035
UCCUGGAUGUCGAAGCAUGGUAUUUAGUUA | 0.00436 ± 0.0021
UCCUGGAUGUCGUUGCAUAGUUUUAGUUA | 0.000898 ± 0.0066
UCCUGGUACAGCUUGCAUAGUAUUUUCAUA | 0.00207 ± 0.0046
UCCUGGAUGAGCUUGCAUAGUAAAAAGAAA | 0.000771 ± 0.0076
